PubChem BioAssay AID504764, Drosophila RNAi Screening Center, 2011

Assay: 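Genome-wide screen for regulators of Notch-driven gene expression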 (primary screen)
System: Drosophila Kc167 cells
Knock-down reagent: long dsRNA against Drosophila genes
Duration: about 5 days (4 days dsRNA, then 24 h after transfection)
Challenge: transfection of constitutively active membrane-tethered Notch lacking the extracellular domain, read 24 h later
Measurement: 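Light from a Notch-responsive E(spl)m3 luciferase reporter under active Notch, with control-promoter and no-Notch reporter wells to normalise; raw counts from paired wells a and b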
Direction: induced reporter light, run 1, well a and induced reporter light, run 1, well b: higher = more light from the Notch target reporter with active Notch; control promoter light, run 1, well a and control promoter light, run 1, well b: higher = more light from the viral control promoter (cell number, transfection, viability); uninduced reporter light, run 1, well a: higher = more light from the Notch target reporter without active Notch
Call rule: 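Hit if the duplicate-averaged log2 ratio of induced to control-promoter light gives a plate-wise z beyond ±2, or induced to uninduced beyond ±1.8; weak-control or discordant-duplicate wells dropped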
Calls: active = modifier hit (raised or lowered Notch signal); inactive = not a hit
The screen tested about 22,000 reagents; below is an unselected part of those with a known target gene and a result. Of all reagents, 403 (1.9%) are marked active. 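Unnormalised raw counts per well; ratio z-scores behind the hit calls and whether each hit raises or lowers signal are not deposited.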 A plus sign joins genes that one reagent is predicted to hit. Not given: the amount of reagent.

no.	gene	amplicon	induced reporter light, run 1, well a	induced reporter light, run 1, well b	control promoter light, run 1, well a	control promoter light, run 1, well b	uninduced reporter light, run 1, well a	Call
1	ND-B12	DRSC04060	54325	44640	40710	27855	2450	inactive
2	CG5001	DRSC00673	1.07e5	1.32e5	1.14e5	71800	9540	inactive
3	Gr61a	DRSC08358	91285	1.19e5	1.98e5	1.87e5	6020	inactive
4	CG32845	DRSC07867	1.63e5	1.85e5	2.22e5	1.73e5	13525	inactive
5	Elys	DRSC19571	1.19e5	1.44e5	1.01e5	66045	9840	inactive
6	l(3)neo38	DRSC14946	61235	79110	63195	50935	3725	inactive
7	l(3)neo38	DRSC16138	67840	64295	54150	43065	2465	inactive

Records above whose gene name starts with L or l (2):
gene	amplicon	induced reporter light, run 1, well a	induced reporter light, run 1, well b	control promoter light, run 1, well a	control promoter light, run 1, well b	uninduced reporter light, run 1, well a	Call
l(3)neo38	DRSC14946	61235	79110	63195	50935	3725	inactive
l(3)neo38	DRSC16138	67840	64295	54150	43065	2465	inactive

More records:
no.	gene	amplicon	induced reporter light, run 1, well a	induced reporter light, run 1, well b	control promoter light, run 1, well a	control promoter light, run 1, well b	uninduced reporter light, run 1, well a	Call
8	shot	DRSC05459	1.97e5	2.26e5	1.99e5	1.97e5	18888	inactive
9	shot	DRSC05460	1.88e5	1.58e5	2.26e5	2.11e5	16060	inactive
10	shot	DRSC07682	2.01e5	1.50e5	1.72e5	1.49e5	13200	inactive
11	Crk	DRSC17163	1.64e5	2.25e5	2.70e5	2.59e5	13260	inactive
12	GlcAT-P	DRSC10603	90655	1.30e5	1.05e5	47360	11285	inactive
13	GlcAT-P	DRSC10604	1.63e5	1.66e5	2.97e5	2.49e5	11438	inactive
14	cer	DRSC05992	38880	37525	37310	42905	3745	inactive
15	MstProx + Mst84Da	DRSC12597	1.01e5	95980	77980	99035	4820	inactive
16	Patsas	DRSC02975	2.55e5	2.34e5	2.22e5	2.16e5	17640	inactive
17	CG31373	DRSC16052	1.02e5	89765	93065	93210	4160	inactive
18	CG11664	DRSC18650	1.26e5	1.08e5	1.65e5	1.97e5	9055	inactive
19	Tif-IA	DRSC03717	1.92e5	1.92e5	1.43e5	1.52e5	14080	inactive
20	Tif-IA	DRSC03726	44365	37950	53600	36390	2865	inactive
